Laboratory results as given in the supplement of paper PMC10849652.
The other results are listed elsewhere or left out.

The chains behind the UniProt entries cited, without tags or fusion partners. Where a name states a change or a piece, a line headed by the entry shows the natural chain unless it says otherwise.
UniProt Q16204: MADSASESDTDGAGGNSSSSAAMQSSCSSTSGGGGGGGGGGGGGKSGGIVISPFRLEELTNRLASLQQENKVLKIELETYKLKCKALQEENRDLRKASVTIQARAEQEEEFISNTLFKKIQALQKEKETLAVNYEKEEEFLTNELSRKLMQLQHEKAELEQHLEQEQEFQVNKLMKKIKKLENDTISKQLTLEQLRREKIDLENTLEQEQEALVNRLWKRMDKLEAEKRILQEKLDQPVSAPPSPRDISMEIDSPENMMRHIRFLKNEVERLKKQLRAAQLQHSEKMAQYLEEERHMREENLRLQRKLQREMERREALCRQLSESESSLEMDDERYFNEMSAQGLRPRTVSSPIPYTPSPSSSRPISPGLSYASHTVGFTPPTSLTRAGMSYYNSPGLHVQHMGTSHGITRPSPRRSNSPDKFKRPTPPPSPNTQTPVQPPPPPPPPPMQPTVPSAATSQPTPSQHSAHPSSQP
UniProt Q14790: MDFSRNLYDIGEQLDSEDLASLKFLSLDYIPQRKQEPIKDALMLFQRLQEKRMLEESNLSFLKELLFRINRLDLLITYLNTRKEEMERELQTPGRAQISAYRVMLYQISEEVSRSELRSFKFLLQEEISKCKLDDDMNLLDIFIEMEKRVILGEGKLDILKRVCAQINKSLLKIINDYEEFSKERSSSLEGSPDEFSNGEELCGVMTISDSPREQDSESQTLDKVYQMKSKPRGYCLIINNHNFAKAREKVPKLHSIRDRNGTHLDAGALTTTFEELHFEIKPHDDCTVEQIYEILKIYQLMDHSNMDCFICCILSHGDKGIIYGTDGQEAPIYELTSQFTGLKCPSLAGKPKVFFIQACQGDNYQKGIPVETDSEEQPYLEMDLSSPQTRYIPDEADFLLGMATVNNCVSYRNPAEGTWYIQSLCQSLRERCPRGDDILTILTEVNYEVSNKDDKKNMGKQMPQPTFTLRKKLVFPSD
UniProt Q8ND76: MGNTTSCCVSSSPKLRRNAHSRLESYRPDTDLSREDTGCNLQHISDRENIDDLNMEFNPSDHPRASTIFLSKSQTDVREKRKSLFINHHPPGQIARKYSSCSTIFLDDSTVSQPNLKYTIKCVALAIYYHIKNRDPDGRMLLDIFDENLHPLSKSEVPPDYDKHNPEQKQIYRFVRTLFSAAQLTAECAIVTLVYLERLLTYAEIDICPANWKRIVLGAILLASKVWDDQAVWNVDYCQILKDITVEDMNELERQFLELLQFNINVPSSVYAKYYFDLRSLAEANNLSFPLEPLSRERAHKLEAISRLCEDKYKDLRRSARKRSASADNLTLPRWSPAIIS
UniProt O60508: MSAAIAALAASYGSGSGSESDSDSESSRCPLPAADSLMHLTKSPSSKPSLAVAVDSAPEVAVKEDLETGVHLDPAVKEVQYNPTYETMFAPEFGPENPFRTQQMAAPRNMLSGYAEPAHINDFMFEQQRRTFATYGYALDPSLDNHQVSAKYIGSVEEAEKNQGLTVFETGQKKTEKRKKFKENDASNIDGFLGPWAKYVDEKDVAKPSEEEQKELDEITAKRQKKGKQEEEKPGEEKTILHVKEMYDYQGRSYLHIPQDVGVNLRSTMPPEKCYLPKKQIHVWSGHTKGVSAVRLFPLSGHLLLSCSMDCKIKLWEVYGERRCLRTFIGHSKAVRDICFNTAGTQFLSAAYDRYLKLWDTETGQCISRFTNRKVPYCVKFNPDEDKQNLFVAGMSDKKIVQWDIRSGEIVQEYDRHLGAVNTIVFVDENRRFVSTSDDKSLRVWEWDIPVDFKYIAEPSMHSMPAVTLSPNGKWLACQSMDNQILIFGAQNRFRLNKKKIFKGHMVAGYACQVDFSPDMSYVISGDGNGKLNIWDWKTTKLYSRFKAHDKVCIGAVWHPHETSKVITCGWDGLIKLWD
UniProt Q8N7R7: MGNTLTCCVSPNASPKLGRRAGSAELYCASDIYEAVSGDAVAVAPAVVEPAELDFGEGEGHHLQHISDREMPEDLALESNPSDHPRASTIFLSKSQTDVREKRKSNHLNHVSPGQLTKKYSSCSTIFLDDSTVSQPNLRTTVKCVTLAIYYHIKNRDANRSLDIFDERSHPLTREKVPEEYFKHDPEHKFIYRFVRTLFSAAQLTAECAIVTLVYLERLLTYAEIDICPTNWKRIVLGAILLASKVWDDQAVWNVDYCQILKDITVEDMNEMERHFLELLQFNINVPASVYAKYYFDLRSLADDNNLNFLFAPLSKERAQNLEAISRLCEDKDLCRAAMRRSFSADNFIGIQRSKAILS
UniProt Q5ZPR3: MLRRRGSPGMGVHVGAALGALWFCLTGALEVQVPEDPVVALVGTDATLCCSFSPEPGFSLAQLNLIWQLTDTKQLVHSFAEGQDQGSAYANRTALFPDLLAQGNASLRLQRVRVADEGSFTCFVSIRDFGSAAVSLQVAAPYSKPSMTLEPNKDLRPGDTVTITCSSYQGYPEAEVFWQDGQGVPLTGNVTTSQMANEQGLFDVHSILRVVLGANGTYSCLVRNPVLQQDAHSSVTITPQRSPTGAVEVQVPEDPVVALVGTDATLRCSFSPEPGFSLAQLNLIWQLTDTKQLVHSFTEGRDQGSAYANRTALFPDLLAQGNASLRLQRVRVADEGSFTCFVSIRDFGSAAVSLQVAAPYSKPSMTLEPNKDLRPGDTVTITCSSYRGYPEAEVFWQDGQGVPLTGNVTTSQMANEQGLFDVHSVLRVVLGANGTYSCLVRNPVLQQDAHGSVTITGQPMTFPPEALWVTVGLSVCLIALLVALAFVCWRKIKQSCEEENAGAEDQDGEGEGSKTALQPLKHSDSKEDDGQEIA
UniProt P30305: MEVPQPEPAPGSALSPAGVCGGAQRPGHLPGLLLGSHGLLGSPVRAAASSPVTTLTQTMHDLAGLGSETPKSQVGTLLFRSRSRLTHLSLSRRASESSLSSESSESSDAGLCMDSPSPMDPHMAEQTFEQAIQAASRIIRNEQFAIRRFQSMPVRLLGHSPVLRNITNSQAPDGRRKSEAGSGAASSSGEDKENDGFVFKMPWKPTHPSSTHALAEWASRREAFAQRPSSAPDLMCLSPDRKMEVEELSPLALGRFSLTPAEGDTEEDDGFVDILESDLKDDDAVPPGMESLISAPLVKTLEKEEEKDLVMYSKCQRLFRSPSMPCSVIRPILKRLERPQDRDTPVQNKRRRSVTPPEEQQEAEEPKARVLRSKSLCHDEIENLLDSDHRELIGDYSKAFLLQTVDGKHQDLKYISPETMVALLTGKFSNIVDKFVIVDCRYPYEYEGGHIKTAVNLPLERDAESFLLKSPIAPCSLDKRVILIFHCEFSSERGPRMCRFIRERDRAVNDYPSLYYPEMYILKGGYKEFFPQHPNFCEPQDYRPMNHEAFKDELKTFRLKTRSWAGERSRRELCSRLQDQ
UniProt Q15834: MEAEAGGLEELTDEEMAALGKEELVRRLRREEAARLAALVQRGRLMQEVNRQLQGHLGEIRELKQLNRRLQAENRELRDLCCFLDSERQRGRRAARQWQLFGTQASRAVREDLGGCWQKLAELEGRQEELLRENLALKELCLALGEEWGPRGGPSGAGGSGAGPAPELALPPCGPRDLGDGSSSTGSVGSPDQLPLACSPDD
UniProt P51636: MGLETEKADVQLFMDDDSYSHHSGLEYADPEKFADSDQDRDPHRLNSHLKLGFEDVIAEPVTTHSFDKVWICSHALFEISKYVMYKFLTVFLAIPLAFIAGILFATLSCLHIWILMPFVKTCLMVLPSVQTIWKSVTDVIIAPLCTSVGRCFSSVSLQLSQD
UniProt Q4G0I0: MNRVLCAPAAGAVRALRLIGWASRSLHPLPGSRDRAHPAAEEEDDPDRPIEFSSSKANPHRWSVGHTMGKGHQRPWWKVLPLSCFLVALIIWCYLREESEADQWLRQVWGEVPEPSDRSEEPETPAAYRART
UniProt Q04900: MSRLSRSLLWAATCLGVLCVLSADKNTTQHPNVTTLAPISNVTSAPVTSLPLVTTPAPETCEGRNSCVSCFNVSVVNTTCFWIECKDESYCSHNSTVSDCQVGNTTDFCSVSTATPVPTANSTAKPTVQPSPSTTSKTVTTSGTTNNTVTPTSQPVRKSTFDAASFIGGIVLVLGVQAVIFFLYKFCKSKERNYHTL
UniProt Q8TCZ2: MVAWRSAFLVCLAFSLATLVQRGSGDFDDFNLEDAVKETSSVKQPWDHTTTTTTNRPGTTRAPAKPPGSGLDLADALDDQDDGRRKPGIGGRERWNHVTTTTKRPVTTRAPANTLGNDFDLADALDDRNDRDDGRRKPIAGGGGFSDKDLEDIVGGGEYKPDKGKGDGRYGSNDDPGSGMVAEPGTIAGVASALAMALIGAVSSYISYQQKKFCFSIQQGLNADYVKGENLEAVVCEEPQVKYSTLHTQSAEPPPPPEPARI
UniProt A6NKD9: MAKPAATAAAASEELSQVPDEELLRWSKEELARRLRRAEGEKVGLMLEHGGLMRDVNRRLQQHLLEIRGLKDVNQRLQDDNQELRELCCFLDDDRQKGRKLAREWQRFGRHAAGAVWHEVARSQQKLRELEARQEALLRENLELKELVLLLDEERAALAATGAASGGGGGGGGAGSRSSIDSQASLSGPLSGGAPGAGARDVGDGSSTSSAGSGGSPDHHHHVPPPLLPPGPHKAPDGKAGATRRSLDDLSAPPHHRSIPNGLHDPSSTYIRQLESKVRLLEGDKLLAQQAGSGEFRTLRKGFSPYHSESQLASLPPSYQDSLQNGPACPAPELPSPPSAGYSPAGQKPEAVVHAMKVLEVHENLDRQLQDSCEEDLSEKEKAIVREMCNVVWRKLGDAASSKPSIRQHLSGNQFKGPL
UniProt P27701: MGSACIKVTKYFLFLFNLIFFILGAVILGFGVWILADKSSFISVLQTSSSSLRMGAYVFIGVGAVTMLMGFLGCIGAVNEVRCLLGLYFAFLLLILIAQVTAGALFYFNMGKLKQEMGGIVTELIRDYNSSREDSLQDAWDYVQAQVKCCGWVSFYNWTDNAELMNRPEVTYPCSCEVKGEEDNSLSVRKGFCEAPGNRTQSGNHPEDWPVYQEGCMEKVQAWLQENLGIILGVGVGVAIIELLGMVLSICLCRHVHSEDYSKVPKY
UniProt P14209: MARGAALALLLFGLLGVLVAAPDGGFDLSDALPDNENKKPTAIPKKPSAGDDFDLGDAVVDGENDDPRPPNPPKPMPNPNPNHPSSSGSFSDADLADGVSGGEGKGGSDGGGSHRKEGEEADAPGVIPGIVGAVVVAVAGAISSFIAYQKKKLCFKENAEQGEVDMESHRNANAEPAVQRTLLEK
UniProt O95273: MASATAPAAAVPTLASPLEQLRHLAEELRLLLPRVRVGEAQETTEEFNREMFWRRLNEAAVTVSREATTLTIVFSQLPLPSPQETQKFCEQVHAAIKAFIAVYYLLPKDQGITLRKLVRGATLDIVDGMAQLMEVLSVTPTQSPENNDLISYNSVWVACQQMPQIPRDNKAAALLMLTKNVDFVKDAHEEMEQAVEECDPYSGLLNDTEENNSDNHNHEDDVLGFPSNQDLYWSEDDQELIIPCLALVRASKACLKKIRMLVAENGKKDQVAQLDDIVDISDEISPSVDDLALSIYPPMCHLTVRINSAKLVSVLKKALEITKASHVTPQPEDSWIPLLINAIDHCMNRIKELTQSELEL
UniProt P24863: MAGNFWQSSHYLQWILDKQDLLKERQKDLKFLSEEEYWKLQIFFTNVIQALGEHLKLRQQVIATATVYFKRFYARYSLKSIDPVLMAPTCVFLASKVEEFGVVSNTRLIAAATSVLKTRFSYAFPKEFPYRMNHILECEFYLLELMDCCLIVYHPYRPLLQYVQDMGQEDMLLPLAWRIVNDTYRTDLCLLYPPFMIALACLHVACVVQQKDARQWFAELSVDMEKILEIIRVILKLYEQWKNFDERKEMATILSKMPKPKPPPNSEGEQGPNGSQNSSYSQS
UniProt Q8IWP9: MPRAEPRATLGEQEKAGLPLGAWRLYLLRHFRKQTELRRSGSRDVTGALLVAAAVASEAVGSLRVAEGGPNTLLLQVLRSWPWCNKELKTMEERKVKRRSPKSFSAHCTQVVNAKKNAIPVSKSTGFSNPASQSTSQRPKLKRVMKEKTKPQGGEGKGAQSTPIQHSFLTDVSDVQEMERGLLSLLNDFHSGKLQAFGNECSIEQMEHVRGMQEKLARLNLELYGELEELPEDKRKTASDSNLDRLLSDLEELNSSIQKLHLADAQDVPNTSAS
UniProt Q6PK04: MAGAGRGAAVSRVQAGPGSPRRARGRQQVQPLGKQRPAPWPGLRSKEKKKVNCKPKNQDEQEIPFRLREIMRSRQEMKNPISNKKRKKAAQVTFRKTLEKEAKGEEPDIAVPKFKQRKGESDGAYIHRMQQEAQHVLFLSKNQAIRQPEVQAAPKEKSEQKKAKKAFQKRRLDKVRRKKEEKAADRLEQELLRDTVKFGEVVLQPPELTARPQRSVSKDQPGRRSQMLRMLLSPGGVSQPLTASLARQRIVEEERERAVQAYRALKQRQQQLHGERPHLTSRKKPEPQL

Tests used:
Assay in all cases: log2 fold change, soluble protein after heating vs DMSO (PISA); higher = thermal stabilisation; K562 cells, 10 uM, 30 min; active = over 0.2 and 3.5 SD of the protein, either way, in both replicates (recomputed)
bafetinib = compound: Cc1ccc(NC(=O)c2ccc(CN3CC[C@H](N(C)C)C3)c(C(F)(F)F)c2)cc1Nc1nccc(-c2cncnc2)n1 [bafetinib]
Method in brief: (§1)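 Quantification of soluble protein used TMTpro 16plex LC-MS/MS, with channel sums equalised. Samples were the supernatant after 21,000xg for 90 min of pooled aliquots from K562 cells (2×10^6 cells/mL) treated with 10 μM compound for 30 min, heated for 3 min over 48°C-58°C, and extracted in PBS with 0.5% NP-40 at 4°C. Values, from duplicates, describe thermal stability against control samples on a log2 fold-change scale.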

[1] = compound: Cc1cccc(CC(=O)N2CCc3c2ccc(-c2cn(C)c4ncnc(N)c24)c3F)n1
Method in brief: as §1

nilotinib = compound: Cc1cn(-c2cc(NC(=O)c3ccc(C)c(Nc4nccc(-c5cccnc5)n4)c3)cc(C(F)(F)F)c2)cn1 [nilotinib]
Method in brief: as §1

[2] = compound: Cc1nc(Nc2n[nH]c3c2CN(C(=O)N[C@H](CN(C)C)c2ccccc2)C3(C)C)c2sccc2n1
Method in brief: as §1

dasatinib = compound: Cc1nc(Nc2ncc(C(=O)Nc3c(C)cccc3Cl)s2)cc(N2CCN(CCO)CC2)n1 [dasatinib]
Method in brief: as §1

[3] = compound: Cc1ncc(-c2ccnc(Nc3ccc(S(C)(=O)=O)cc3)n2)n1C(C)C
Method in brief: as §1

[4] = compound: Cn1cc(-c2ccc3c(c2)CCN3C(=O)Cc2cccc(C(F)(F)F)c2)c2c(N)ncnc21
Method in brief: as §1

[5] = compound: Cn1cc(-c2ccc3nnc(C(F)(F)c4ccc5ncccc5c4)n3n2)cn1
Method in brief: as §1

tipifarnib = compound: Cn1cncc1[C@@](N)(c1ccc(Cl)cc1)c1ccc2c(c1)c(-c1cccc(Cl)c1)cc(=O)n2C [tipifarnib]
Method in brief: as §1

mubritinib = compound: FC(F)(F)c1ccc(/C=C/c2nc(COc3ccc(CCCCn4ccnn4)cc3)co2)cc1 [mubritinib]
Method in brief: as §1

[6] = compound: NC(=O)Nc1cc(-c2cccc(F)c2)sc1C(=O)N[C@H]1CCCNC1
Method in brief: as §1

[7] = compound: NC(=O)c1cnc(N[C@@H]2CCCC[C@@H]2N)nc1Nc1cccc(-n2nccn2)c1
Method in brief: as §1

[8] = compound: NC1(c2ccc(-c3nc4ccn5c(=O)[nH]nc5c4cc3-c3ccccc3)cc2)CCC1
Method in brief: as §1

[9] = compound: NCC(=O)Nc1ccc(-n2nc(C(F)(F)F)cc2-c2ccc3c(ccc4ccccc43)c2)cc1
Method in brief: as §1

entinostat = compound: Nc1ccccc1NC(=O)c1ccc(CNC(=O)OCc2cccnc2)cc1 [entinostat]
Method in brief: as §1

vorinostat = compound: O=C(CCCCCCC(=O)Nc1ccccc1)NO [vorinostat]
Method in brief: as §1

citarinostat = compound: O=C(CCCCCCNC(=O)c1cnc(N(c2ccccc2)c2ccccc2Cl)nc1)NO [citarinostat]
Method in brief: as §1

silmitasertib = compound: O=C(O)c1ccc2c(c1)nc(Nc1cccc(Cl)c1)c1ccncc12 [silmitasertib]
Method in brief: as §1

[10] = compound: O=C1NC(=O)C(c2cnc3ccccn23)=C1c1cn2c3c(cc(F)cc13)CN(C(=O)N1CCCCC1)CC2
Method in brief: as §1

[11] = compound: c1cc(OCCN2CCCCC2)cc(-c2n[nH]c3ccc(-c4nnc[nH]4)cc23)c1
Method in brief: as §1

Target	log2 fold change (bafetinib)	log2 fold change [1]	log2 fold change (nilotinib)	log2 fold change [2]	log2 fold change (dasatinib)	log2 fold change [3]	log2 fold change [4]	log2 fold change [5]	log2 fold change (tipifarnib)	log2 fold change (mubritinib)	log2 fold change [6]	log2 fold change [7]	log2 fold change [8]	log2 fold change [9]	log2 fold change (entinostat)	log2 fold change (vorinostat)	log2 fold change (citarinostat)	log2 fold change (silmitasertib)	log2 fold change [10]	log2 fold change [11]
CCDC6 (UniProt Q16204)	inactive: -0.035	inactive: 0.002	inactive: 0.002	inactive: 0.001	inactive: 0.028	inactive: -0.016	inactive: 0.054	inactive: -0.022	inactive: 0.002	inactive: 0.019	inactive: -0.004	inactive: 0.007	inactive: 0.001	inactive: -0.001	inactive: -0.008	inactive: -0.012	inactive: 0.02	inactive: -0.03	inactive: -0.045	inactive: 0.009
CASP8 isoform 9 (UniProt Q14790)	inactive: 0.072	inactive: 0.093	inactive: -0.183	inactive: 0.018	inactive: -0.039	inactive: 0.069		inactive: -0.066	inactive: -0.094	inactive: -0.095	inactive: -0.06	inactive: -0.051	inactive: -0.186	inactive: -0.151	inactive: -0.119	inactive: -0.021	inactive: -0.048	inactive: 0.12	inactive: 0.008	inactive: 0.009
CCNY (UniProt Q8ND76)	inactive: 0.381	inactive: -0.277	inactive: 0.22	inactive: -0.231	inactive: 0.112	inactive: 0.025	inactive: 0.002	inactive: 0.077	inactive: 0.107		inactive: -0.046	inactive: 0.066		inactive: -0.032	inactive: -0.16	inactive: 0.218			inactive: 0.194	
CDC40 (UniProt O60508)	inactive: 0.166	inactive: -0.092	inactive: 0.049	inactive: 0.272	inactive: 0.14	inactive: 0.399	inactive: -0.422		inactive: 0.205	inactive: -0.33	inactive: 0.095	inactive: 0.132	inactive: 0.144	inactive: 0.12	inactive: -0.044	inactive: -0.222	inactive: -0.234	inactive: 0.171	inactive: 0.202	inactive: -0.276
CCNYL1 (UniProt Q8N7R7)	inactive: 0.184	inactive: 0.043	inactive: -0.132	inactive: 0.04	inactive: -0.021	inactive: 0.05	inactive: 0.099			inactive: -0.156	inactive: -0.111	inactive: 0.011	inactive: -0.1		inactive: 0.021	inactive: -0.061	inactive: -0.038	inactive: 0.049	inactive: -0.072	inactive: -0.18
CD276 (UniProt Q5ZPR3)	inactive: -0.115	inactive: -0.072														inactive: 0.043				
CDC25B isoform 4 (UniProt P30305)	inactive: 0.081	inactive: -0.022	active: -0.513	inactive: -0.051		inactive: -0.206	inactive: 0.095	inactive: -0.03	inactive: 0.022	inactive: 0.074	inactive: -0.04	inactive: -0.07	inactive: -0.157	inactive: 0.088	inactive: 0.047	inactive: 0.071	inactive: 0.115	inactive: 0.054	inactive: 0.014	inactive: -0.123
CCDC85B (UniProt Q15834)	inactive: -0.036	inactive: -0.015			inactive: 0.016		inactive: 0.26		inactive: -0.111	inactive: -0.29	inactive: 0.152	inactive: -0.266	inactive: 0.144	inactive: 0.026	inactive: -0.016	inactive: -0.038	inactive: -0.042	inactive: -0.112		inactive: -0.205
CAV2 (UniProt P51636)	active: -1.25	inactive: -0.054	inactive: 0.221	inactive: -0.082	inactive: 0.033	inactive: 0.008			inactive: 0.136	inactive: 0.066	inactive: -0.251	inactive: -0.041	inactive: 0.027		inactive: -0.088	inactive: 0.147		inactive: 0.106		
CCSMST1 (UniProt Q4G0I0)	inactive: -0.131		inactive: 0.024	inactive: -0.028	inactive: 0.04	inactive: -0.031	inactive: 0.12	inactive: 0.049	inactive: -0.02	inactive: 0.041	inactive: -0.013	inactive: 0.152	inactive: -0.002	inactive: 0.003	inactive: 0.068		inactive: 0.016	inactive: -0.041	inactive: -0.028	inactive: -0.051
CD164 (UniProt Q04900)	inactive: -0.167	inactive: -0.268	inactive: -0.196	inactive: -0.013		inactive: -0.143	inactive: 0.024	inactive: -0.174		inactive: 0.164	inactive: -0.076	inactive: -0.228	inactive: 0.162	inactive: -0.074	inactive: 0.025	inactive: 0.167	inactive: 0.06	inactive: -0.075	inactive: -0.111	inactive: -0.215
CD99L2 isoform 5 (UniProt Q8TCZ2)	inactive: -0.027	inactive: -0.002	inactive: 0.059	inactive: -0.15	inactive: -0.086	inactive: 0.045	inactive: 0.106		inactive: 0.072	inactive: -0.048			inactive: 0.139	inactive: -0.028		inactive: -0.037		inactive: 0.001	inactive: -0.079	
CCDC85C (UniProt A6NKD9)	inactive: 0	inactive: -0.243			inactive: 0.077		inactive: -0.042	inactive: 0.137	inactive: 0.02	inactive: 0.036	inactive: -0.127	inactive: 0.009	inactive: -0.022	inactive: 0.022	inactive: -0.235	inactive: 0.087	inactive: -0.006	inactive: 0.136	inactive: -0.035	inactive: -0.1
CD82 (UniProt P27701)	inactive: -0.098	inactive: -0.135	inactive: -0.118	inactive: -0.193		inactive: -0.173		inactive: -0.044		inactive: 0.063	inactive: -0.017		inactive: -0.12		inactive: -0.022	inactive: 0.225		inactive: -0.054	inactive: -0.062	
CD99 (UniProt P14209)	inactive: -0.004	inactive: -0.005	inactive: 0.011	inactive: -0.039		inactive: -0.029	inactive: 0.037		inactive: 0.098	inactive: 0.023	inactive: -0.075	inactive: 0.299	inactive: 0.062	inactive: 0.182	inactive: -0.021	inactive: -0.007	inactive: 0.018	inactive: -0.062	inactive: -0.033	inactive: 0.077
CCNDBP1 (UniProt O95273)	inactive: 0.059	inactive: -0.017	inactive: -0.19	inactive: 0.028	inactive: 0.023	inactive: 0.21	inactive: -0.055	inactive: -0.197		inactive: -0.045	inactive: 0.046	inactive: -0.027	inactive: -0.091	inactive: 0.069	inactive: -0.036	inactive: -0.069	inactive: 0.05	inactive: 0.087		inactive: -0.084
CCNC (UniProt P24863)	inactive: 0.031	inactive: 0.055			inactive: -0.074		inactive: -0.091	inactive: -0.015		inactive: -0.016	inactive: -0.032	inactive: -0.105	inactive: -0.017	inactive: -0.033	inactive: 0.04	inactive: -0.039		inactive: 0.183	inactive: 0.039	
CCDC28A (UniProt Q8IWP9)	inactive: 0.052		inactive: -0.029	inactive: -0.1	inactive: -0.052	inactive: -0.03	inactive: -0.306	inactive: 0.003	inactive: 0.085	inactive: -0.005	inactive: -0.007	inactive: -0.123	inactive: -0.014	inactive: 0.142	inactive: -0.031		inactive: 0.006	inactive: 0.008	inactive: -0.244	inactive: 0.017
CCDC137 (UniProt Q6PK04)	inactive: 0.266	inactive: -0.11	inactive: -0.041	inactive: 0.076	inactive: 0.258	inactive: 0	inactive: -0.38	inactive: -0.129		inactive: -0.148	inactive: 0.123	inactive: 0.265	inactive: 0.327	inactive: 0.143	inactive: -0.199	inactive: -0.085	inactive: -0.225	inactive: 0.277	inactive: -0.008	inactive: -0.045

In another format: entries from further up.

| Target | log2 fold change (bafetinib) | log2 fold change [1] | log2 fold change (nilotinib) | log2 fold change [2] | log2 fold change (dasatinib) | log2 fold change [3] | log2 fold change [4] | log2 fold change [5] | log2 fold change (tipifarnib) | log2 fold change (mubritinib) | log2 fold change [6] | log2 fold change [7] | log2 fold change [8] | log2 fold change [9] | log2 fold change (entinostat) | log2 fold change (vorinostat) | log2 fold change (citarinostat) | log2 fold change (silmitasertib) | log2 fold change [10] | log2 fold change [11] |
| --- | --- | --- | --- | --- | --- | --- | --- | --- | --- | --- | --- | --- | --- | --- | --- | --- | --- | --- | --- | --- |
| CCDC85B (UniProt Q15834) | inactive: -0.036 | inactive: -0.015 |  |  | inactive: 0.016 |  | inactive: 0.26 |  | inactive: -0.111 | inactive: -0.29 | inactive: 0.152 | inactive: -0.266 | inactive: 0.144 | inactive: 0.026 | inactive: -0.016 | inactive: -0.038 | inactive: -0.042 | inactive: -0.112 |  | inactive: -0.205 |
| CCDC137 (UniProt Q6PK04) | inactive: 0.266 | inactive: -0.11 | inactive: -0.041 | inactive: 0.076 | inactive: 0.258 | inactive: 0 | inactive: -0.38 | inactive: -0.129 |  | inactive: -0.148 | inactive: 0.123 | inactive: 0.265 | inactive: 0.327 | inactive: 0.143 | inactive: -0.199 | inactive: -0.085 | inactive: -0.225 | inactive: 0.277 | inactive: -0.008 | inactive: -0.045 |
